The values that follow are results of earlier work, collected in US20210395309A1, “PEPTIDE-DRUG CONJUGATES” (Hong Kong Baptist University, priority 2020, published 2021).

In brackets after ≈: the same amount, converted by molar mass.

For this data set the following is noted: cited from earlier work.

For `CC(=O)O[C@H]1C(=O)[C@@]2(C)[C@H]([C@H](OC(=O)c3ccccc3)[C@]3(O)C[C@H](OC(=O)[C@H](O)[C@@H](NC(=O)c4ccccc4)c4ccccc4)C(C)=C1C3(C)C)[C@]1(OC(C)=O)CO[C@@H]1C[C@@H]2O` [PTX, Paclitaxel], the aqueous solubility (commonly the dissolved amount per volume that the medium holds) was 0.07 µg/mL (≈ 0.082 µM).
